# Microarray screen: hit calls

Source: the ROBIN nucleic acid binder screens (doi:10.1002/anie.202211358).

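The test is a small-molecule microarray: each compound is printed twice on a reactive slide, and binding shows as fluorescence of the labelled oligonucleotide after washing. For the PreQ1, TPP and SAM-II riboswitches the laboratory earlier reported (doi:10.1038/s41467-019-09493-3) 1 µM RNA, 2 h, and a rule that included a mean Z-score above 3 (spot signal-to-noise against the whole library), a score well above that on a control array, and duplicate spots agreeing (coefficient of variation under 100). The data file gives only the calls; its cut-offs may differ, and compounds hitting several targets are kept. A missing hit is not proof of no binding, and a hit is not a measured affinity.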 Key: yes = hit, no = tested without a hit. Compounds were drawn at random from those tested, without regard to their results. A target missing from an entry has no call listed here. A dash means that no call is listed here.

Targets (5′ to 3′):
SAM-II: SAM-II riboswitch RNA pseudoknot, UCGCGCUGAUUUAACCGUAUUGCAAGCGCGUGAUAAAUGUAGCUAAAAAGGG. About 200 hits among about 21,000 compounds.
TPP: TPP riboswitch RNA three-way junction, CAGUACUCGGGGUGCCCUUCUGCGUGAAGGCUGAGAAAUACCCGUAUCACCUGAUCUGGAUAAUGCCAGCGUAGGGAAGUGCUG. About 160 hits among about 24,000 compounds.
PreQ1: PreQ1 riboswitch RNA pseudoknot, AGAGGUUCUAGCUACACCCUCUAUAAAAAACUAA. From B. subtilis. About 170 hits among about 24,000 compounds.

| structure | SAM-II | TPP | PreQ1 |
|---|---|---|---|
| `CCOc1ccccc1Nc1cc(C)nc2nc(Cc3ccccc3)nn12` | - | no | no |
| `OCc1ccc(-c2cn(CCNc3ccccc3)nn2)o1` | no | no | no |
| `Cc1cc(C)cc(OCCCn2c(CO)nc3ccccc32)c1` | no | no | no |
| `Cc1cc(C2CCCCN2C(=O)CCc2cc3n(n2)CCCNC3)no1` (stereo not given) | no | no | no |
| `CCOC(=O)c1c(N)[nH]c(=O)c2cnc(C)nc12` | no | no | no |
| `COC(=O)c1ccc(N2C(=O)CC(SCCN)C2=O)cc1` (stereo not given) | no | no | no |
| `Cc1cnc(N)nc1N(C)CCc1nc2ccccc2[nH]1` | no | no | no |
| `Cc1noc(C)c1CC(=O)NCC1(O)CCCNCC1` (stereo not given) | no | no | no |
| `NCCC1CCCN(Cc2ccccc2C(F)(F)F)C1` (stereo not given) | no | no | no |
| `CCC(Cn1ccnc1)NC(=O)c1cccc(NCc2ccc(F)cc2)c1` (stereo not given) | no | no | no |
| `COCCCNCC1C(Oc2ccc(Cl)cc2)C(=O)N1c1ccc(C)cc1` (stereo not given) | no | no | no |
| `CCOc1ccc(NC(=O)c2sc3nc4c(cc3c2N)CN(Cc2ccccc2)CC4)cc1` | no | no | no |
| `COc1cc(-c2cc(C)c3cccc(OC)c3n2)cc2c1OCCN(CCCO)C2` | no | no | no |
| `CC12CCC(C(=O)N(CC(O)CN3CCCCC3)C1=O)C2(C)C` (stereo not given) | no | no | no |
| `CCOC(=O)C1=C(N)Oc2cc(C)[nH]c(=O)c2C12C(=O)N(Cc1ccc(Cl)cc1)c1ccccc12` (stereo not given) | no | no | no |
| `CSc1ccc(CC(=O)N2C[C@@H](CN3CCN(C)CC3)[C@@H](CO)C2)cc1` | no | no | no |
| `CCC(C)n1ncn(-c2ccc(N3CCN(c4ccc(OC[C@H]5CO[C@](Cn6cncn6)(c6ccc(Cl)cc6Cl)O5)cc4)CC3)cc2)c1=O` (stereo not given in full) | no | no | no |
| `O=C(c1cn(-c2ccccc2)nn1)N1CCNC(c2ccccc2)C1` (stereo not given) | no | no | no |
| `COCC(=O)Oc1cc(-c2ccc(C)cc2C)c(OC(=O)COC)c(-c2ccc(C)cc2C)c1` | no | no | no |
| `CCCCCCN1CC2(CCN(C(=O)[C@H]3[C@@H]4CNC[C@@H]43)CC2)OC1=O` | no | no | no |
| `OCCC[C@@H]1CN(c2cccc(C(F)(F)F)n2)CC[C@@H]1N1CCOCC1` | no | no | no |
| `Cn1nnnc1SCCNc1nc(-c2ccccn2)nc2c1CCNC2` | no | no | no |
| `Nc1nnc(CCNC(=O)c2cn(-c3ccccc3)nn2)s1` | no | no | no |
| `Cc1ccc(C)c(CCNCC(=O)Nc2cc(C)ccc2F)c1` | no | no | no |
| `CCc1nnc2c(NCCCN3CCN(c4ccccc4)CC3)nc3ccccc3n12` | - | no | no |
| `CC1CN(CC(O)COc2ccc(C(C)C)cc2)CC(C)O1` (stereo not given) | no | no | no |
| `CC(C)CC(NC(=O)c1cc2n(n1)CCNC2)c1ncnn1C` (stereo not given) | no | no | no |
| `COc1ccc(-c2cc(-c3ccccc3)nc(N)n2)cc1` | - | no | no |
| `O=C([C@H]1CNC[C@H](C(=O)N2CCN(c3cccnc3)CC2)C1)N1CCOCC1` | no | no | no |
| `Cc1nn2c(N3CCN(CCO)CC3)cc(-c3ccccc3)nc2c1-c1ccccc1` | - | no | no |
| `c1ccc(-c2ccc(CNCc3cccs3)o2)cc1` | - | no | no |
| `CCC(CO)NCC(O)Cn1cnc2c1c(=O)n(C)c(=O)n2C` (stereo not given) | no | no | no |
| `CC(=O)C1=C(O)C(=O)N(CCO)C1c1ccc(Br)cc1` (stereo not given) | no | no | yes |
| `CCn1ccc2cc(C(=O)N3C[C@@H](CN4C[C@@H](C)O[C@@H](C)C4)[C@@H](CO)C3)ccc21` | no | no | no |
| `N#Cc1nnn2c1nc(N)c1c(Cl)cccc12` | no | no | no |
| `Cn1nnnc1SCCNC(=O)[C@H]1Cc2ccccc2CN1` | no | no | no |
| `CC(=O)c1ccc(NC(=O)CSc2nnc(N)s2)cc1` | no | no | no |
| `CCCc1nc2nc(CC)nn2c(O)c1N` | no | no | no |
| `N#CC1=C(N)OC2=C(C(=O)c3ccccc3C2=O)C1c1c(F)cccc1Cl` (stereo not given) | no | no | no |
| `Cc1cccc(Nc2nc3ccccc3n3c(C)nnc23)c1C` | - | no | no |
| `CCOc1ccc(NC(=O)c2c(N)sc3c2CCC(C)C3)cc1` (stereo not given) | no | no | no |
| `Cc1ccc(-c2cc(O)c3c(c2)CN(C(=O)C2CCNC2)CCO3)s1` (stereo not given) | no | no | no |
| `COc1ccc(C=CCN2CCOCC(CO)C2)cc1` (stereo not given) | no | no | no |
| `C#CCOc1cc(C2CC(=O)Nc3nc(N)sc32)ccc1OC` (stereo not given) | no | no | no |
| `CCC[C@@H](C=O)NC(=O)[C@H](CC(C)C)NC(=O)[C@H](CC(C)C)NC(=O)OCc1ccccc1` | no | no | no |
| `Cc1c(NC(=O)Nc2c(Cl)cccc2Cl)c(=O)n(-c2ccccc2)n1C` | no | no | no |
| `O=C(c1ccccc1-c1ncc[nH]1)N1CCC(Cc2cccc(CO)c2)C1` (stereo not given) | no | no | no |
| `Nc1ccccc1-c1nc2ccccc2o1` | no | no | no |

Some entries from above, unchanged:

{"structure": "Cn1nnnc1SCCNc1nc(-c2ccccn2)nc2c1CCNC2", "SAM-II": "no", "TPP": "no", "PreQ1": "no"}
{"structure": "CCOC(=O)C1=C(N)Oc2cc(C)[nH]c(=O)c2C12C(=O)N(Cc1ccc(Cl)cc1)c1ccccc12", "stereo": "stereo not given", "SAM-II": "no", "TPP": "no", "PreQ1": "no"}
{"structure": "O=C(c1cn(-c2ccccc2)nn1)N1CCNC(c2ccccc2)C1", "stereo": "stereo not given", "SAM-II": "no", "TPP": "no", "PreQ1": "no"}
{"structure": "Nc1nnc(CCNC(=O)c2cn(-c3ccccc3)nn2)s1", "SAM-II": "no", "TPP": "no", "PreQ1": "no"}
{"structure": "Cn1nnnc1SCCNC(=O)[C@H]1Cc2ccccc2CN1", "SAM-II": "no", "TPP": "no", "PreQ1": "no"}
{"structure": "COc1ccc(-c2cc(-c3ccccc3)nc(N)n2)cc1", "TPP": "no", "PreQ1": "no"}